PubChem BioAssay AID504786 – Drosophila RNAi Screening Center, 2011
The deposit covers about 21,000 reagents; shown is an unselected part of those with a known target gene and a result. 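Primary screen; positive scores mean lost reporter signal, so the sign may be inverted from the usual convention.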 Reagents against one gene are numbered here.

- Aim: 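Knock-downs reducing HIF reporter induction by the iron chelator DFO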 (primary screen)
- Cells: Drosophila S2 cells with a stable HIF luciferase reporter
- Reagents: long dsRNA against Drosophila genes, about 0.2 µg dsRNA per well of a 384-well plate
- Time to read-out: three days of knock-down, then 20 h of DFO before reading
- Treatment: desferrioxamine (DFO) at 100 µM, an iron chelator that mimics hypoxia, for 20 h
- Measured: 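Firefly luciferase driven by the mouse ldh-a hypoxia-response element, measured after 20 h of 100 µM DFO; z-scores per plate, higher means more signal lost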
- Reading the numbers: z-score: higher = stronger loss of HIF reporter signal

With knock-down of CG30416, the record shows z-score, replicate 1 = -0.3; z-score, replicate 2 = -0.8.
Against a10, the entry reads z-score, replicate 1 = -0.3; z-score, replicate 2 = -0.2.
For Cht4 the deposit lists z-score, replicate 1 = -0.2; z-score, replicate 2 = -0.1.
Exd2 showed z-score, replicate 1 = -0.4; z-score, replicate 2 = -0.4.
After knock-down of CG15422, the record shows z-score, replicate 1 = -0.2; z-score, replicate 2 = -0.4.
With knock-down of fusl the results were z-score, replicate 1 = -0.3; z-score, replicate 2 = -0.3.
Depletion of eIF2gamma #1 resulted in: z-score, replicate 1 = 4; z-score, replicate 2 = 4.1.
Knock-down of eIF2gamma #2 gave: z-score, replicate 1 = 0; z-score, replicate 2 = 0.
Depletion of asl gave: z-score, replicate 1 = -0.4; z-score, replicate 2 = -0.6.
Depletion of CG32373 gave: z-score, replicate 1 = -0.2; z-score, replicate 2 = -0.2.
For CG8736 the deposit lists z-score, replicate 1 = -0.3; z-score, replicate 2 = -0.4.
With knock-down of g, the record shows z-score, replicate 1 = 0; z-score, replicate 2 = 0.5.
eIF4H1 showed z-score, replicate 1 = 2.9; z-score, replicate 2 = 2.2.
After knock-down of Bap55, the record shows z-score, replicate 1 = 0; z-score, replicate 2 = -0.4.
Depletion of CG16743 resulted in: z-score, replicate 1 = 0.9; z-score, replicate 2 = 0.5.
AOX4 showed z-score, replicate 1 = -0.2; z-score, replicate 2 = -0.3.
